The assay has as its target FLAG-tagged USP25 (ubiquitin-specific peptidase 25) (human) (UniProt Q9UHP3). The assay can be described thus: affinity purification with mass spectrometry; FLAG-USP25 transiently transfected in HEK293T for 48 h, immunoprecipitated with anti-Flag magnetic beads, SDS-PAGE, gel sections digested with trypsin, LC-MS/MS.

Amino acid sequences for entries named in this document (tags omitted).
UniProt Q9UHP3: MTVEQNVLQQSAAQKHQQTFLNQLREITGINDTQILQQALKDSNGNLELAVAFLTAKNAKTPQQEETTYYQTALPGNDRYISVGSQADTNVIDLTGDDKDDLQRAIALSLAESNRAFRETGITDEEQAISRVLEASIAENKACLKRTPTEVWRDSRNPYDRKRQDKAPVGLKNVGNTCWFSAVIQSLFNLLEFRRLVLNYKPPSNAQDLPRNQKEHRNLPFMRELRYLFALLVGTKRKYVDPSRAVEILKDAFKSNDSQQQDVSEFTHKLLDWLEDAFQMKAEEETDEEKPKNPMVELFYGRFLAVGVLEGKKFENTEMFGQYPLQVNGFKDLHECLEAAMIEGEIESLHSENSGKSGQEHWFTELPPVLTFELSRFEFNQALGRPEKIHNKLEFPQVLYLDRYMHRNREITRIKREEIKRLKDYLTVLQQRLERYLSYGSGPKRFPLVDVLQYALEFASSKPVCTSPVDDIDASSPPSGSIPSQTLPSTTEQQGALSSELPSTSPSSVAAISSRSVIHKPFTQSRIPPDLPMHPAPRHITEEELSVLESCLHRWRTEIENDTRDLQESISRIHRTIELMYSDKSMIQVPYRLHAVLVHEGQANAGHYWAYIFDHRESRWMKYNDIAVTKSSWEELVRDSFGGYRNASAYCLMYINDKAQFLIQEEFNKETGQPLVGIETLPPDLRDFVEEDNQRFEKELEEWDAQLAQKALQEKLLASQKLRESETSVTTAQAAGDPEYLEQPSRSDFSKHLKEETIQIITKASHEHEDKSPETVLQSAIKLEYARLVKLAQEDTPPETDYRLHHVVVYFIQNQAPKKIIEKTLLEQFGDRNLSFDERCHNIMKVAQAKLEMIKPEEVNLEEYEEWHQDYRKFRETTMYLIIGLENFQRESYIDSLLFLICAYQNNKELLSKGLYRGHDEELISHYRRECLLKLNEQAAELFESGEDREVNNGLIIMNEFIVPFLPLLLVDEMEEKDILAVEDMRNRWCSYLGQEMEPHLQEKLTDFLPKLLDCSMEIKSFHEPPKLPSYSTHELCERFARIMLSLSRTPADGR
UniProt Q14145: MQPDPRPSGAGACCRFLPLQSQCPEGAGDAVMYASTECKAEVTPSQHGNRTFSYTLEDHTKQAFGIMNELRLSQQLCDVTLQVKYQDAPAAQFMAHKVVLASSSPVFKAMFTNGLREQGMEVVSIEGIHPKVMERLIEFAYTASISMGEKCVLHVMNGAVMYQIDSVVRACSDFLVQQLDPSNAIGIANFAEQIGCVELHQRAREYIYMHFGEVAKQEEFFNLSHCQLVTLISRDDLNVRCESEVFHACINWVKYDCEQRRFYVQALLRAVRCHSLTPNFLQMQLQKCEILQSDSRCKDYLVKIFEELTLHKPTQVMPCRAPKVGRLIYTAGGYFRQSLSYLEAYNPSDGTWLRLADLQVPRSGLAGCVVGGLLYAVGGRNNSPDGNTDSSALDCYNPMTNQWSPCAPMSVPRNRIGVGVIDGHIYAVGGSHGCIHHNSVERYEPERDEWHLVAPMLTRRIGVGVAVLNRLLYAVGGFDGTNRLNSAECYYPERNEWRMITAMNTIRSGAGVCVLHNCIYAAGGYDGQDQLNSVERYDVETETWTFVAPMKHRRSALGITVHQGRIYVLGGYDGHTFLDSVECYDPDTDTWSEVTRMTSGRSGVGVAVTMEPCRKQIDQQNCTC

From PMC10282087 come the findings set out here.

No constants are given. Whether binding was seen depends on the method and setting. Binding seen in cells or lysates may run through a third protein. These calls come from enrichment with a bait or labelling near it, and not all partners need be listed.

For the substance “Kelch-like ECH-associated protein 1 (KEAP1), endogenous in HEK293T cells (from UniProt Q14145 1-624)”, the binding result is “binds”.
